We go through 21 compounds from PubChem BioAssay AID206 (DTP/NCI, 2004).

In this assay the test system is nude mice, HT29 intrarenal xenograft, tumor weight T/C. Briefly: NCI In Vivo Anticancer Drug Screen. Data for tumor model HT29;CX-1 Human Adenocarcinoma (MER+) (intrarenal inoculation) in NU/NU Swiss (nude) mice. The settings on record: T/C endpoint: mean tumor weight change, higher T/C = larger tumour. As to the method:
The antitumor activity of compounds was measured in mice bearing transplantable tumors. Survival or tumor size were measured and the results are expressed as the measurement made in the treated group (T) divided by the measurement made in the vehicle treated control group (C). The tumor model used in this assay is HT29;CX-1 Human Adenocarcinoma (MER+) (intrarenal inoculation) in NU/NU Swiss (nude) mice

Setting [1] is: dose: 10.0 mg/kg/injection, schedule: Q04DX004 (sc), vehicle: water.
[2] abbreviates: dose: 200.0 mg/kg/injection, schedule: Q01DX010 (sc), vehicle: saline with Tween-80.
[3] abbreviates: dose: 300.0 mg/kg/injection, schedule: Q04DX004 (sc), vehicle: Klucel (hydroxypropylcellulose) (HPC), evaluated on day 15.

The list does not hold the whole screen: it gathers tests that were run many times, whatever their T/C, doses with no T/C, and many T/C values between a quarter and a half above the control. Other doses and runs of a compound stand elsewhere. T/C gives the treated animals as a percentage of the vehicle group. Schedule codes are those of the source, taken here to give the interval after Q, in days (D) or hours (H), and the number of doses after X. Some T/C values carry the count of animals alive at the toxicity check (mostly the fifth day); where none is given, no animal had died by that day. Some entries were tested several times; their values stand side by side, smallest first. Marks such as (2×) stand for listed records that agree. Some entries give survivors of the animals treated and no T/C: the source holds a T/C of zero for them, seemingly a mark for toxic or unscored doses. Counts of survivors are from the toxicity check (mostly the fifth day) where no day follows; animals may have died later.

For `CCCCCc1cc(/C=C2/N=C(c3ccc[nH]3)C=C2OC)[nH]c1C`, the survivor count reads like this: (dose: 32.0 mg/kg/injection, schedule: Q04DX004 (sc), vehicle: saline with Tween-80) 3 of 6 on day 15; (dose: 64.0 mg/kg/injection, schedule: Q04DX004 (sc), vehicle: saline with Tween-80) 2 of 6 on day 15; (dose: 128.0 mg/kg/injection, schedule: Q04DX004 (sc), vehicle: saline with Tween-80) 0 of 6 on day 15.

In the case of `CC1(C)OC(=O)N(CO)C1=O`, the T/C (dose: 100.0 mg/kg/injection, schedule: Q01DX010 (sc), vehicle: saline, evaluated on day 20) is 128 % of control.

Take `COc1cccc2c1C(=N)c1c(O)c3c(c(O)c1C2=O)C[C@@](O)(C(C)=O)C[C@@H]3OC1CC(N)C(O)C(C)O1` (stereo partly drawn): the survivor count runs as follows: under setting [1], 1 of 2 on day 15; (dose: 40.0 mg/kg/injection, schedule: Q04DX004 (sc), vehicle: water) 0 of 1 on day 15 and 0 of 3 on day 15; (dose: 80.0 mg/kg/injection, schedule: Q04DX004 (sc), vehicle: water) 0 of 3 on day 15; (dose: 160.0 mg/kg/injection, schedule: Q04DX004 (sc), vehicle: water) 0 of 3 on day 15.

For the compound `COc1cc2c(cc1O)N=C[C@@H]1CCC(O)N1C2=O` (mixture of isomers), the survivor count is 1 of 6 on day 15 (dose: 20.0 mg/kg/injection, schedule: Q04DX004 (sc), vehicle: suspension in saline); 0 of 6 on day 15 (dose: 40.0 mg/kg/injection, schedule: Q04DX004 (sc), vehicle: suspension in saline); 0 of 6 on day 15 (dose: 80.0 mg/kg/injection, schedule: Q04DX004 (sc), vehicle: suspension in saline).

Turning to `O=Cc1ccc([N+](=O)[O-])s1`, the survivor count under setting [2] was 0 of 3 on day 11.

In the case of `OC1CCCC2CCC[N-]C12.OC1CCCC2CCC[N-]C12.[Mn+2]` (stereo not drawn), the T/C is 126 % of control under setting [3] and 134 % of control [5 of 6 alive on day 15] (dose: 1200.0 mg/kg/injection, schedule: Q04DX004 (sc), vehicle: Klucel (hydroxypropylcellulose) (HPC), evaluated on day 15).

Take `CN(C)CCN1C(=O)c2cccc3cc([N+](=O)[O-])cc(c23)C1=O`: the T/C (dose: 9.0 mg/kg/injection, schedule: Q04DX004 (sc), vehicle: saline with Tween-80, evaluated on day 15) is 126 % of control. Further, the survivor count is 2 of 6 on day 15 (dose: 36.0 mg/kg/injection, schedule: Q04DX004 (sc), vehicle: saline with Tween-80) and 0 of 6 on day 15 (dose: 72.0 mg/kg/injection, schedule: Q04DX004 (sc), vehicle: saline with Tween-80).

As to `CC[C@@]1(O)C[C@H](OC2CC(N(C)C)C(OC3CC(O)C(OC4CCC(=O)C(C)O4)C(C)O3)C(C)O2)c2c(cc3c(c2O)C(=O)c2c(O)cccc2C3=O)[C@H]1C(=O)OC` (stereo partly drawn), the survivor count is given as 1 of 3 on day 11 (dose: 4.0 mg/kg/injection, schedule: Q01DX010 (ip), vehicle: water); 0 of 3 on day 11 (dose: 8.0 mg/kg/injection, schedule: Q01DX010 (ip), vehicle: water); 0 of 3 on day 11 (dose: 16.0 mg/kg/injection, schedule: Q01DX010 (ip), vehicle: water); 0 of 6 on day 15 (dose: 16.0 mg/kg/injection, schedule: Q04DX004 (ip), vehicle: water); 1 of 3 on day 15 (dose: 16.0 mg/kg/injection, schedule: Q04DX004 (sc), vehicle: water); 0 of 3 on day 15 (dose: 32.0 mg/kg/injection, schedule: Q04DX004 (sc), vehicle: water).

In the case of `NC(=O)c1ncn(C2OC(CO)C(O)C2O)n1` (stereo not drawn), for the setting “dose: 1800.0 mg/kg/injection, schedule: Q04DX004 (sc), vehicle: saline”, the survivor count is reported as 0 of 6 on day 15.

As to `COC1CC(CC2CCC(C)C(C(C)C(=O)O)O2)OC2(OC(C)(C3CCC(C)(C4OC(C5OC(O)(CO)C(C)CC5C)CC4C)O3)CC2C)C1C` (stereo not drawn), the survivor count was 3 of 6 on day 15 (dose: 15.0 mg/kg/injection, schedule: Q04DX004 (sc), vehicle: Klucel (hydroxypropylcellulose) (HPC)) and 1 of 6 on day 15 (dose: 30.0 mg/kg/injection, schedule: Q04DX004 (sc), vehicle: Klucel (hydroxypropylcellulose) (HPC)).

`COc1ccc2[nH]c3c(c2c1)CCNC3CC(C)CCC=C(C)C` (stereo not drawn): the T/C (dose: 75.0 mg/kg/injection, schedule: Q04DX004 (sc), vehicle: Klucel (hydroxypropylcellulose) (HPC), evaluated on day 15) is 133 % of control.

Consider `COc1ccc(/C=C/C(=O)c2cc(C(=O)O)c(OC)cc2OC)cc1OC`, for which, where the note is “dose: 1800.0 mg/kg/injection, schedule: Q04DX004 (sc), vehicle: suspension in saline”, the survivor count is reported as 2 of 5 on day 15.

As for `CO[C@H]1C[C@](C)(O)Cc2cc3c(c(O)c21)C(=O)c1c(O)cc2c(c1C3=O)O[C@@H]1O[C@@]2(C)[C@H](O)[C@@H](N(C)C)[C@@H]1O`, the T/C (dose: 100.0 mg/kg/injection, schedule: Q04DX004 (sc), vehicle: other, evaluated on day 15) is 132 % of control; the T/C (dose: 200.0 mg/kg/injection, schedule: Q04DX004 (sc), vehicle: other, evaluated on day 15) is 134 % of control; the T/C (dose: 400.0 mg/kg/injection, schedule: Q04DX004 (sc), vehicle: other, evaluated on day 15) is 135 % of control [2 of 3 alive on day 15].

For `CCOC1=Cc2c(oc3c(C(C)(C)C)cc(OCC)cc23)OC(C(C)(C)C)=C1`, the T/C (dose: 300.0 mg/kg/injection, schedule: Q04DX004 (sc), vehicle: saline with Tween-80, evaluated on day 15) was 132 % of control.

Take `O=c1oc2c(O)c(O)cc3c(=O)oc4c(O)c(O)cc1c4c23`: under setting [3], the T/C was 126 % of control.

Take `C[n+]1cccc(NC(=O)c2ccc(NC(=O)C34CCC(C(=O)Nc5ccc(C(=O)Nc6ccc[n+](C)c6)cc5)(CC3)CC4)cc2)c1`: the survivor count (dose: 100.0 mg/kg/injection, schedule: Q04DX004 (sc), vehicle: saline with Tween-80) was 0 of 6 on day 15 and 2 of 6 on day 15; the survivor count (dose: 200.0 mg/kg/injection, schedule: Q04DX004 (sc), vehicle: saline with Tween-80) is given as 0 of 6 on day 15; the survivor count (dose: 400.0 mg/kg/injection, schedule: Q04DX004 (sc), vehicle: saline with Tween-80) is recorded as 0 of 6 on day 15.

In the case of `CCOC(OCC)C(=O)OCC(=O)[C@]1(O)Cc2c(O)c3c(c(O)c2[C@@H](OC2CC(N)C(O)C(C)O2)C1)C(=O)c1c(OC)cccc1C3=O` (stereo partly drawn), the survivor count reads like this: under setting [1], 2 of 5 on day 15; (dose: 20.0 mg/kg/injection, schedule: Q04DX004 (sc), vehicle: water) 0 of 5 on day 15 and 3 of 6 on day 15.

On to `C[N+](C)(C)c1cc2c(nn1)Nc1ccccc1S2`, for which the survivor count by setting is: (dose: 200.0 mg/kg/injection, schedule: Q01DX010 (sc), vehicle: Klucel (hydroxypropylcellulose) (HPC)) 0 of 3 on day 20; (dose: 400.0 mg/kg/injection, schedule: Q01DX010 (sc), vehicle: Klucel (hydroxypropylcellulose) (HPC)) 0 of 3 on day 20.

Turning to `Cc1ccc(S(=O)(=O)NC(=O)OC23COCN2COC3)cc1`, the T/C (dose: 400.0 mg/kg/injection, schedule: Q04DX004 (sc), vehicle: saline with Tween-80, evaluated on day 15) was 128 % of control.

Consider `CCOC(=O)C(CC(C)C)NC(=O)C(Cc1ccc(N(CCCl)CCCl)cc1)NC(C)=O` (stereo not drawn), for which the T/C (dose: 50.0 mg/kg/injection, schedule: Q01DX010 (sc), vehicle: saline with Tween-80, evaluated on day 11) is 9 [2 of 3 alive on day 11], 34, 48, 75 [4 of 6 alive on day 11], 88, 114 % of control; the T/C (dose: 100.0 mg/kg/injection, schedule: Q01DX010 (sc), vehicle: saline with Tween-80, evaluated on day 11) was 17, 46 [4 of 6 alive on day 11], 49 % of control (2×); the T/C (dose: 200.0 mg/kg/injection, schedule: Q01DX010 (sc), vehicle: saline with Tween-80, evaluated on day 11) is 13, 73, 156 % of control [5 of 6 alive on day 11]. Also, the survivor count was 1 of 3 on day 11 and 2 of 6 on day 11 (dose: 100.0 mg/kg/injection, schedule: Q01DX010 (sc), vehicle: saline with Tween-80); 0 of 3 on day 11 under setting [2]; 0 of 3 on day 11 (dose: 400.0 mg/kg/injection, schedule: Q01DX010 (sc), vehicle: saline with Tween-80).

For the compound `CC(=O)N(C)C`, the survivor count (dose: 5400.0 mg/kg/injection, schedule: Q04DX004 (sc), vehicle: saline) is reported as 0 of 6 on day 15.
